PubChem BioAssay AID1259275, Sanger Institute | 2017
The deposit covers 794 reagents; shown is a part drawn at random. In the full data, 13 (1.6%) are marked active. 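Calls mark knock-downs lethal by themselves, not drug synergy; drugs went in a day after transfection, with DMSO as vehicle.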 Viability is capped at 1. Not all columns of the deposit are shown. Not given: the amount of reagent, the time to read-out.

- Assay: 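Knock-downs that cut viability on their own or combined with BYL719, cetuximab or trametinib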 (primary screen)
- Cell system: COLO320HSR human colorectal cancer cells
- Reagent: siRNA pool against human genes
- Treatment: anchor drug added one day after transfection: BYL719 at 1 µM, cetuximab at 5 µg/ml or trametinib at 10 nM; DMSO as vehicle arm
- Read-out: 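Viability averaged over replicates as a fraction of the non-targeting pool, a robust z-score for knock-down alone, and synergy scores with BYL719 (1 µM), cetuximab (5 µg/ml) or trametinib (10 nM)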
- Direction: robust z-score, siRNA alone: higher = more viable cells; strongly negative means essential; viability, knock-down alone (DMSO): higher = more viable cells; synergy score with BYL719: higher = stronger combined killing with drug
- Call rule: 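a gene is called essential when its robust z-score without drug falls below -3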
- Calls: active = essential (siRNA alone); inactive = no change (siRNA alone)

no.	Target gene	PubChem SID	robust z-score, siRNA alone	viability, knock-down alone (DMSO) (fraction of control)	synergy score with BYL719	activity call
1	ERBB2	SID152153302	-1.15	0.83	-0.198	inactive
2	MAP2K5	SID135620764	0.212	0.954	-0.0171	inactive
3	CDC42BPB	SID152149037	-0.361	0.902	-0.309	inactive
4	CDKL1	SID56478790	0.693	0.997	-0.111	inactive
5	AMHR2	SID56478996	0.395	0.97	-0.0826	inactive
6	DGKG	SID152147412	0.205	0.953	-0.0608	inactive
7	RPS6KB1	SID152147142	-0.971	0.847	-0.158	inactive
8	FN3K	SID56479098	0.482	0.978	-0.0344	inactive
9	UCKL1	SID152149527	-0.57	0.883	-0.108	inactive
10	IKBKE	SID56478721	-1.05	0.84	-0.157	inactive
11	NEK2	SID56478772	0.726	1	-0.0413	inactive
12	SRPK2	SID56478890	0.407	0.971	-0.053	inactive
